Laboratory results from patent US20120018333A1, “Reducing Side Effects of Tramadol” (priority 2007, published 2012).
Where a name gives a salt, the structure may show the parent alone. At least one compound was matched to its structure with a doubt left.

Key:
[1] = volunteer study of adverse events: tramadol HCl alone or combined with sildenafil citrate and naltrexone HCl before sexual intercourse; conditions: tramadol HCl 25 mg or 100 mg alone, oral, 2 to 5 hours before intercourse
Method: In particular, three healthy, heterosexual male subjects (mean age 57) signed informed consents and volunteered to self administer oral tramadol HCl 100 mg 2 to 5 hours before sexual intercourse and to record any adverse events. At other times, these volunteers self administered oral tramadol HCl 25 to 100 mg combined with oral sildenafil citrate 50 mg or oral sildenafil citrate 50 mg plus oral naltrexone HCl 2.5 to 10 mg 2 to 5 hours before sexual intercourse and recorded any adverse effects.

[2] = placebo controlled, dose-ranging clinical study of oral tramadol HCl in men with severe premature ejaculation; format: in vivo, human; conditions: each of the three oral doses, versus placebo
Method: See U.S. Pat. No. 6,974,839, Safarinejad et al., J. Clin. Psychopharmacol., 26(1):27-31 (February 2006) and Salem et al., J. Sex. Med., 5(1):188-193 (January 2008). A placebo controlled, dose-ranging clinical study that enrolled more than 60 male volunteers with severe premature ejaculation who self administered three different doses of oral tramadol HCl 2 to 5 hours before sexual intercourse was performed on behalf of DMI BioSciences, Inc., Aurora, Colo. […] However, the patient reported outcome responses in this study also reported the following previously unreported mild or moderate adverse events (percentages based on total drug exposures for the three doses): erectile dysfunction (8%-14%), anorgasmia (3%-7%), and penile hypoesthesia (4%-5%). Less common unexpected, drug-related mild or moderate adverse events were decreased libido (<1%-2%) and decreased orgasmic sensation (0-<1%). These mild or moderate adverse events related to sexual activity were generally dose-dependent and occurred more frequently in men 40 years of age and older.

With `COc1cccc([C@]2(O)CCCC[C@H]2CN(C)C)c1` (racemic) [tramadol HCl, (±) cis-2-[(dimethylamino)methyl]-1-(3-methoxyphenyl)-cyclohexanol hydrochloride] the delay of ejaculation [1] was “consistently delayed ejaculation” and the delay in ejaculation [2] was “statistically significant delay in ejaculation”.
